{"source": "paper PMC11330866", "target": "SARS-CoV-2-encoded translational regulator Nsp1 (SARS-CoV-2) (UniProt P0DTD1)", "experiment": "co-IP; lysates of cancer cells in NP40 IP-lysis buffer with protease inhibitors; primary antibody overnight at 4 °C, A/G agarose beads 2 h, three washes in PBS; western blot; 5× of input sample used; which protein was precipitated not given", "note": "No constants are given. Whether binding was seen depends on the method and setting. In cells and extracts the contact can be indirect. Some results given as binding are weak or reduced against the parent protein; the word gives no strength.", "data": [{"substance": "ASCC3 (from UniProt Q8N3C0 1-2202)", "values": [{"measurement": "binding", "result": "binds"}]}]}
